Measured values: PMC9303297, “Characterization of an autonomous pathway complex that promotes flowering in Arabidopsis” (Nucleic Acids Research, 2022)
These are yes or no findings as the source states them, for the method shown. Binding seen in cells or lysates may run through a third protein. Here binding means that the protein was enriched with, or labelled near, the bait; the list need not be complete. Sequences can lack the tags named with a protein.

What was measured:
Test in all cases: affinity purification with mass spectrometry; 3×Flag-tagged bait from inflorescence of transgenic Arabidopsis (WT, sdg26 and fld backgrounds) bound to ANTI-FLAG M2 agarose at 4°C, lysis buffer 50 mM Tris-HCl pH 7.6, 150 mM NaCl, 0.1% NP-40; eluted with 3×Flag peptides
[1] = biological target: T1, FLD (FLOWERING LOCUS D), FLD-3×Flag in transgenic Arabidopsis (Arabidopsis thaliana) (UniProt Q9CAE3)
T1 sequence: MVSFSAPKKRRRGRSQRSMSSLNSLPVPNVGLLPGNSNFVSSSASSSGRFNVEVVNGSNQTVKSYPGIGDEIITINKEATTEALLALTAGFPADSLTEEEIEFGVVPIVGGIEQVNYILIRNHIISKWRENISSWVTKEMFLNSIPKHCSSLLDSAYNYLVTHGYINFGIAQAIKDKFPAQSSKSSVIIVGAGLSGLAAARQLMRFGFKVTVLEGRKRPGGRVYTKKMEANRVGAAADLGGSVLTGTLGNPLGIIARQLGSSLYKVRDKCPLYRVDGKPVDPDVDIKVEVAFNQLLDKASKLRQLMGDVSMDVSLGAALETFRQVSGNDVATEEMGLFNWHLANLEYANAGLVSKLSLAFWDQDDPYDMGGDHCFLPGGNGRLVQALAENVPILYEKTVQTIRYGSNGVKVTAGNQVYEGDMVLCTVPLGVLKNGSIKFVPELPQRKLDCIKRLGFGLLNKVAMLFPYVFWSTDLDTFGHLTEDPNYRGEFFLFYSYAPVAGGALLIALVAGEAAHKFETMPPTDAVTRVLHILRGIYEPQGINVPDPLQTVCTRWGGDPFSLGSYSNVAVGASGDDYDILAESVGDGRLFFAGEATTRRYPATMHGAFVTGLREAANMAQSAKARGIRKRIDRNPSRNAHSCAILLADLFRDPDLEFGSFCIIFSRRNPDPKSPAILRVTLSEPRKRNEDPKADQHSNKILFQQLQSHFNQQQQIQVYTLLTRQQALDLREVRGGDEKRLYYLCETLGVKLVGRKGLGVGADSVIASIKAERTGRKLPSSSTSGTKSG

[2] = biological target: T2, EFL4 (ELF4-like protein), EFL4-3×Flag in transgenic Arabidopsis (Arabidopsis thaliana) (UniProt Q570U6)
T2 sequence: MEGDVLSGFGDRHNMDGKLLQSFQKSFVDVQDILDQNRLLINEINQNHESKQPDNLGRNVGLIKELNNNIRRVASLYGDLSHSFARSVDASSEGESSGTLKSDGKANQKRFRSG

[3] = biological target: T3, EFL2 (ELF4-like protein), EFL2-3×Flag in transgenic Arabidopsis (Arabidopsis thaliana) (UniProt Q94BS8)
T3 sequence: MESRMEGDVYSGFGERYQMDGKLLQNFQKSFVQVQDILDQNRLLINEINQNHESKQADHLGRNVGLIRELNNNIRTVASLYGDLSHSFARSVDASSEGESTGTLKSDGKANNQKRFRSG

[4] = biological target: T4, LD (LU…), LD-3×Flag in transgenic Arabidopsis (Arabidopsis thaliana) (UniProt Q38796)
T4 sequence: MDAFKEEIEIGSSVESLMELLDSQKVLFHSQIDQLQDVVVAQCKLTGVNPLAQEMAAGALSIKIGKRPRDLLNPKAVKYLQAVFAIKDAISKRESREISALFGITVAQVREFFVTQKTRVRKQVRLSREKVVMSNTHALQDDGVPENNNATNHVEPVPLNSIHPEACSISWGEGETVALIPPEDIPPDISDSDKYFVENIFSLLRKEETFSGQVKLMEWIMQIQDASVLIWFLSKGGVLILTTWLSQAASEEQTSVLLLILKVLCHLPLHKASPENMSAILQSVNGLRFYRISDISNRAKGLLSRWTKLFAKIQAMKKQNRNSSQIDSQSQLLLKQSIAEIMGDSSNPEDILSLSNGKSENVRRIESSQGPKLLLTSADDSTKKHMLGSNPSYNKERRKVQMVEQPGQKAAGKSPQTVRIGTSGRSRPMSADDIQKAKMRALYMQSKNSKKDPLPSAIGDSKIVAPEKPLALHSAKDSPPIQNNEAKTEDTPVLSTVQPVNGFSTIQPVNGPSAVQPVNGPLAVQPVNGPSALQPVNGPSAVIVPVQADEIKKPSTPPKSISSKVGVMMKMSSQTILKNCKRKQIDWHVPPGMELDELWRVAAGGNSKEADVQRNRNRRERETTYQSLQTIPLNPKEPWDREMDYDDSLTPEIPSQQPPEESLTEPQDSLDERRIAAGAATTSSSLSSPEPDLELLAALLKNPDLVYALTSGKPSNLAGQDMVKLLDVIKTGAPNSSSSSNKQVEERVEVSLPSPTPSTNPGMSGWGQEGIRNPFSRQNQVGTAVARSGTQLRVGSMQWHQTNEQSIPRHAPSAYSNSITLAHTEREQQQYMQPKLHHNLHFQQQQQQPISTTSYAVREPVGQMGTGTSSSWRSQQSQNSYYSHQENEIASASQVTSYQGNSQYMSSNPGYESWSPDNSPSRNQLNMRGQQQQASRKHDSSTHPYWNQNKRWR

[5] = biological target: T5, SDG26, SDG26-3×Flag in transgenic Arabidopsis (Arabidopsis thaliana) (UniProt Q84WW6)
T5 sequence: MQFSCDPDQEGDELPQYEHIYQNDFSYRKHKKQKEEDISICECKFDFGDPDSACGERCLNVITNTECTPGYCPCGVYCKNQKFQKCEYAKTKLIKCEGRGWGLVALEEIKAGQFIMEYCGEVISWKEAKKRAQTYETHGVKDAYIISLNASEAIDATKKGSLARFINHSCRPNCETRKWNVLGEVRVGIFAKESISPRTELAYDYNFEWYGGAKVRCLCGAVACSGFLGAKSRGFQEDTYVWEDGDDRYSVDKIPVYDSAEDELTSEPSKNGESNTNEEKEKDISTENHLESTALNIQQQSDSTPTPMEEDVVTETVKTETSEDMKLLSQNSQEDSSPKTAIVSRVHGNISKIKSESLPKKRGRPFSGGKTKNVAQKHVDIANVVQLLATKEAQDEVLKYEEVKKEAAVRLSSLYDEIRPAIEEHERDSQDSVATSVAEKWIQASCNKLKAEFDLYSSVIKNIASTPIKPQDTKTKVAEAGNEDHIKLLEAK

Measured: binding

B1: SDG26, SDG26-3×Flag in transgenic Arabidopsis (protein, UniProt Q84WW6 1-492)
chain: MQFSCDPDQEGDELPQYEHIYQNDFSYRKHKKQKEEDISICECKFDFGDPDSACGERCLNVITNTECTPGYCPCGVYCKNQKFQKCEYAKTKLIKCEGRGWGLVALEEIKAGQFIMEYCGEVISWKEAKKRAQTYETHGVKDAYIISLNASEAIDATKKGSLARFINHSCRPNCETRKWNVLGEVRVGIFAKESISPRTELAYDYNFEWYGGAKVRCLCGAVACSGFLGAKSRGFQEDTYVWEDGDDRYSVDKIPVYDSAEDELTSEPSKNGESNTNEEKEKDISTENHLESTALNIQQQSDSTPTPMEEDVVTETVKTETSEDMKLLSQNSQEDSSPKTAIVSRVHGNISKIKSESLPKKRGRPFSGGKTKNVAQKHVDIANVVQLLATKEAQDEVLKYEEVKKEAAVRLSSLYDEIRPAIEEHERDSQDSVATSVAEKWIQASCNKLKAEFDLYSSVIKNIASTPIKPQDTKTKVAEAGNEDHIKLLEAK
not listed: [5]
binds: all other assays above

B2: EFL2 (ELF4-like protein), EFL2-3×Flag in transgenic Arabidopsis (protein, UniProt Q94BS8 1-119)
chain: MESRMEGDVYSGFGERYQMDGKLLQNFQKSFVQVQDILDQNRLLINEINQNHESKQADHLGRNVGLIRELNNNIRTVASLYGDLSHSFARSVDASSEGESTGTLKSDGKANNQKRFRSG
binds: [1] | [4] | [5]

B3: HDA19 (histone deacetylase complex component) (protein, UniProt O22446 1-501)
chain: MDTGGNSLASGPDGVKRKVCYFYDPEVGNYYYGQGHPMKPHRIRMTHALLAHYGLLQHMQVLKPFPARDRDLCRFHADDYVSFLRSITPETQQDQIRQLKRFNVGEDCPVFDGLYSFCQTYAGGSVGGSVKLNHGLCDIAINWAGGLHHAKKCEASGFCYVNDIVLAILELLKQHERVLYVDIDIHHGDGVEEAFYATDRVMTVSFHKFGDYFPGTGHIQDIGYGSGKYYSLNVPLDDGIDDESYHLLFKPIMGKVMEIFRPGAVVLQCGADSLSGDRLGCFNLSIKGHAECVKFMRSFNVPLLLLGGGGYTIRNVARCWCYETGVALGVEVEDKMPEHEYYEYFGPDYTLHVAPSNMENKNSRQMLEEIRNDLLHNLSKLQHAPSVPFQERPPDTETPEVDEDQEDGDKRWDPDSDMDVDDDRKPIPSRVKREAVEPDTKDKDGLKGIMERGKGCEVEVDESGSTKVTGVNPVGVEEASVKMEEEGTNKGGAEQAFPPKT
binds: [2] | [3]

B4: LD (LU…), LD-3×Flag in transgenic Arabidopsis (protein, UniProt Q38796 1-953)
chain: MDAFKEEIEIGSSVESLMELLDSQKVLFHSQIDQLQDVVVAQCKLTGVNPLAQEMAAGALSIKIGKRPRDLLNPKAVKYLQAVFAIKDAISKRESREISALFGITVAQVREFFVTQKTRVRKQVRLSREKVVMSNTHALQDDGVPENNNATNHVEPVPLNSIHPEACSISWGEGETVALIPPEDIPPDISDSDKYFVENIFSLLRKEETFSGQVKLMEWIMQIQDASVLIWFLSKGGVLILTTWLSQAASEEQTSVLLLILKVLCHLPLHKASPENMSAILQSVNGLRFYRISDISNRAKGLLSRWTKLFAKIQAMKKQNRNSSQIDSQSQLLLKQSIAEIMGDSSNPEDILSLSNGKSENVRRIESSQGPKLLLTSADDSTKKHMLGSNPSYNKERRKVQMVEQPGQKAAGKSPQTVRIGTSGRSRPMSADDIQKAKMRALYMQSKNSKKDPLPSAIGDSKIVAPEKPLALHSAKDSPPIQNNEAKTEDTPVLSTVQPVNGFSTIQPVNGPSAVQPVNGPLAVQPVNGPSALQPVNGPSAVIVPVQADEIKKPSTPPKSISSKVGVMMKMSSQTILKNCKRKQIDWHVPPGMELDELWRVAAGGNSKEADVQRNRNRRERETTYQSLQTIPLNPKEPWDREMDYDDSLTPEIPSQQPPEESLTEPQDSLDERRIAAGAATTSSSLSSPEPDLELLAALLKNPDLVYALTSGKPSNLAGQDMVKLLDVIKTGAPNSSSSSNKQVEERVEVSLPSPTPSTNPGMSGWGQEGIRNPFSRQNQVGTAVARSGTQLRVGSMQWHQTNEQSIPRHAPSAYSNSITLAHTEREQQQYMQPKLHHNLHFQQQQQQPISTTSYAVREPVGQMGTGTSSSWRSQQSQNSYYSHQENEIASASQVTSYQGNSQYMSSNPGYESWSPDNSPSRNQLNMRGQQQQASRKHDSSTHPYWNQNKRWR
not listed: [4]
binds: all other assays above

B5: EFL4 (ELF4-like protein), EFL4-3×Flag in transgenic Arabidopsis (protein, UniProt Q570U6 1-114)
chain: MEGDVLSGFGDRHNMDGKLLQSFQKSFVDVQDILDQNRLLINEINQNHESKQPDNLGRNVGLIKELNNNIRRVASLYGDLSHSFARSVDASSEGESSGTLKSDGKANQKRFRSG
binds: [1] | [4] | [5]
